Results reported in paper PMC10143440.
No constants are given. Whether binding was seen depends on the method and setting. In cells and extracts the contact can be indirect. A yes stands for co-enrichment or nearness to the bait. Other partners may have been found. No binding means not detected with the bait. Blank lines part the entries; values can stand above or below the binder they belong to.

By UniProt entry, the sequences of proteins in these tests, tags left out. Residues count along the entry.
UniProt P16305, residues 20-453: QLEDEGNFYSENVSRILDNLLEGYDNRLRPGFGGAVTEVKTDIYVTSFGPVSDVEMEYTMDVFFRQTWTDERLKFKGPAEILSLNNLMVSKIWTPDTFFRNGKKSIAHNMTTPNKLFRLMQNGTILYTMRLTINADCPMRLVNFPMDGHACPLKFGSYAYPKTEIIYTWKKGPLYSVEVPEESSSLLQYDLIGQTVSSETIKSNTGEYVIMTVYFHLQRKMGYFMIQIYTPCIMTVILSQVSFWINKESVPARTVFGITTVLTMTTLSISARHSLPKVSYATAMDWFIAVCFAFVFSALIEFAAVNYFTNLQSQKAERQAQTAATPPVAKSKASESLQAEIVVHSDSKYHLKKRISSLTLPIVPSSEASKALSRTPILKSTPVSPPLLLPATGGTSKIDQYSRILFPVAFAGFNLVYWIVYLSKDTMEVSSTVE

Key:
[1] = target: GABAA receptor α6 subunit (Gabra6) (mouse (endogenous in cerebellum)) (UniProt P16305); assay: affinity purification with mass spectrometry; IP with anti-Gabra1 (N95/35) or anti-Gabra6 (Gabra6-a N229A/32, Gabra6-b custom) antibody from mouse cerebellum extract in 1% MNG, 25 mM HEPES, 150 mM NaCl, pH 7.4, overnight 4 °C; protein A/G agarose; washes 0.1% MNG; SDS-PAGE, LC-MS (DDA, iBAQ)
[2] = target: T1, GABAA receptor α1 subunit (Gabra1) (mouse (endogenous in cerebellum)), P62812; assay: as above; details: remark: other sources report otherwise
T1 chain: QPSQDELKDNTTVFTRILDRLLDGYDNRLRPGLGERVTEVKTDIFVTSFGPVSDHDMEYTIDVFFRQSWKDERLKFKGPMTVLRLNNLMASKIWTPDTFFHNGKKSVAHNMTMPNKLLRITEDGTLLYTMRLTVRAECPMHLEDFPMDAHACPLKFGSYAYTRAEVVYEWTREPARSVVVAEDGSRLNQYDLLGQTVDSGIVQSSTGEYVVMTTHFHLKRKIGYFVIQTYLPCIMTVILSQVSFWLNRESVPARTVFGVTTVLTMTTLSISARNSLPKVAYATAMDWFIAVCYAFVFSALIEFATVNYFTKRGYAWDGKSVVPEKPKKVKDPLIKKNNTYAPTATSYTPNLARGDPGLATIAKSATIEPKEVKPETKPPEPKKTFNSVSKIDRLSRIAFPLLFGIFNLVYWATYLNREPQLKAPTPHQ

binding [1]: no binding
B1: Gephyrin (Gphn) (protein, UniProt Q8BUV3 1-769)
chain: MATEGMILTNHDHQIRVGVLTVSDSCFRNLAEDRSGINLKDLVQDPSLLGGTISAYKIVPDEIEEIKETLIDWCDEKELNLILTTGGTGFAPRDVTPEATKEVIEREAPGMALAMLMGSLNVTPLGMLSRPVCGIRGKTLIINLPGSKKGSQECFQFILPALPHAIDLLRDAIVKVKEVHDELEDLPSPPPPLSPPPTTSPHKQTEDKGVQCEEEEEEKKDSGVASTEDSSSSHITAAALAAKIPDSIISRGVQVLPRDTASLSTTPSESPRAQATSRLSTASCPTPKQIRRPDESKGVASRVGSLKARLPSCSSTYSVSEVQSRCSSKENILRASHSAVDITKVARRHRMSPFPLTSMDKAFITVLEMTPVLGTEIINYRDGMGRVLAQDVYAKDNLPPFPASVKDGYAVRAADGPGDRFIIGESQAGEQPTQTVMPGQVMRVTTGAPIPCGADAVVQVEDTELIRESDDGTEELEVRILVQARPGQDIRPIGHDIKRGECVLAKGTHMGPSEIGLLATVGVTEVEVNKFPVVAVMSTGNELLNPEDDLLPGKIRDSNRSTLLATIQEHGYPTINLGIVGDNPDDLLNALNEGISRADVIITSGGVSMGEKDYLKQVLDIDLHAQIHFGRVFMKPGLPTTFATLDIDGVRKIIFALPGNPVSAVVTCNLFVVPALRKMQGILDPRPTIIKARLSCDVKLDPRPEYHRCILTWHHQEPLPWAQSTGNQMSSRLMSMRSANGLLMLPPKTEQYVELHKGEVVDVMVIGRL

binding [2]: no binding
B2: Gephyrin (Gphn), Q8BUV3 1-769 (protein)
chain: B1 chain
